{"source": "patent US20070264200A1", "about": "“Mouse MRI for drug screening” (priority 2005, published 2007)", "assay": "Steady-state T2-weighted MRI ΔR2 (relative CBV) maps and CNR of mouse brain after contrast agent", "type": "in vivo, C57BL/6 mice", "key": {"[1]": {"conditions": "IP, doses 50 times or higher than the human IV dose"}}, "data": [{"smiles": "CNC(=O)CN(CCN(CCN(CC(=O)[O-])CC(=O)NC)CC(=O)[O-])CC(=O)[O-].[Gd+3]", "note": "[gadodiamide]", "values": [{"measurement": "acquisition time at which AR2 peaked", "setting": "IP 5 and 10 mmol/kg", "result": 37.5, "unit": "min"}, {"measurement": "time after which magnetic susceptibility perturbation was observed in T2 and T2* weighted images", "setting": "[1]", "result": 7.5, "unit": "min"}, {"measurement": "time after which plateau phase was reached", "setting": "[1]", "result": 37.5, "unit": "min"}, {"measurement": "optimum dose", "setting": "IP, highest dose without toxicity", "result": 10, "unit": "mmol/kg"}, {"measurement": "CNR in the next imaging session", "setting": "IP, no flush at the end of the imaging session", "result": "1.62+/−0.59"}, {"measurement": "acquisition time at which AR2 peaked", "setting": "IV (feridex 18 mg Fe/kg, GD 0.2 mmol/kg)", "result": "peaked at first acquisition time"}]}]}
